# Values quoted from earlier work in PMC8620791, “Inhibitory Effects of Sulfonamide Derivatives on the β-Carbonic Anhydrase (MpaCA) from Malassezia pachydermatis, a Commensal, Pathogenic Fungus Present in Domestic Animals” (International Journal of Molecular Sciences, 2021).
# Where “and” joins values, the source holds several entries; their conditions need not be identical. Equal values may be shown once.
# How the values were obtained:
# [1] = biological target: MreCA; parameters: method as in PMID 31963335; conditions: stopped-flow CO2 hydration; given for comparison; ref [26]; cited from earlier work
# [2] = biological target: MgCA; parameters: method as in PMID 31963335; conditions: stopped-flow CO2 hydration; given for comparison; ref [26]; cited from earlier work
smiles,measurement,setting,value
"CCN[C@H]1C[C@H](C)S(=O)(=O)c2sc(S(N)(=O)=O)cc21 [DZA, Dorzolamide, reference compound]",Ki,[1],< 1000 nM and 810 nM
same,Ki,[2],> 10000 nM
